PubChem BioAssay AID587 (National Center for Advancing Translational Sciences (NCATS), 2007)
Hit rate of the full screen: of about 59,000 compounds, about 35 (0.06%) were called active. The inconclusive results got no clear call from the source; some entries with a clear call stand among them for comparison. Cut-off read from the data, not from the text of the source: active = max dye-equivalent concentration above about 10 nM; inconclusive = between about 1.1 nM and that limit; inactive = weaker than that.

Test: qHTS Assay for Spectroscopic Profiling in Texas Red Spectral Region
Conditions: Compound fluorescence, Texas Red channel, 547/618 nm; stronger effect = higher value
How it was run: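 Compound titrations in 100 mM Tris pH 8.0 were incubated 15 min at room temperature and read at 547 nm excitation / 618 nm emission. Texas Red six-point standard curve on each plate converted fluorescence to dye-equivalent concentration.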

Row | Structure (SMILES) | max dye-equivalent concentration
1 | COCc1cc(C)nc(SCC(=O)Nc2ccc(C)c(C)c2)c1C#N | inconclusive: 2.1 nM
2 | CCOc1ccc(C2NC(=O)c3ccccc3O2)cc1 (configuration not stated) | inconclusive: 1.2 nM
3 | O=C(CN1C(=O)c2ccccc2C1=O)[C@@H](O)CN1C(=O)c2ccccc2C1=O | inactive
4 | CC12CCC(C(=O)NCc3ccc4c(c3)OCO4)(OC1=O)C2(C)C (configuration not stated) | inconclusive: 1.6 nM
5 | CC1(C(=O)O)Sc2[nH]c(=O)sc2C2c3ccccc3OC(=O)C21 (configuration not stated) | inconclusive: 1.4 nM
6 | Cc1cccc(N=c2oc3cc(O)ccc3cc2C(N)=O)c1 | inactive
7 | COC(=O)c1ccc(COc2cccc(OC)c2)o1 | inconclusive: 1.5 nM
8 | CC(C)Cn1c(SCc2nnc(-c3cccs3)o2)nc(O)cc1=O | inconclusive: 1.3 nM
9 | CCOC(=O)CSc1nnc(CNC(=O)c2ccc(OC)cc2)n1Cc1ccccc1 | inconclusive: 1.3 nM
10 | Cc1nc(NCC2CCCO2)c2nnn(Cc3ccccc3)c2n1 (configuration not stated) | inconclusive: 1.1 nM
11 | NC12CC3CC(C1)CC(O)(C3)C2 | inconclusive: 1.2 nM
12 | CCC(Oc1ccccc1)C(=O)Nc1ccccn1 (configuration not stated) | inconclusive: 1.4 nM
13 | CCOc1ccc(-n2c(-c3ccco3)n[nH]c2=S)cc1 | inconclusive: 1.2 nM
14 | CC(=O)c1c(C)[nH]c(C(=O)Nc2ccc(C)cn2)c1C | inconclusive: 1.6 nM
15 | COc1ccccc1-c1cc(C(=O)NCc2ccc(Cl)cc2)no1 | inconclusive: 1.1 nM
16 | CN1CCc2nc(N)nc(-c3nc(N)nc4c3CN(C)CC4)c2C1 | inconclusive: 1.1 nM
17 | CCC(c1nnnn1C(C)(C)C)N1CCN(c2cc(Cl)ccc2C)CC1 (configuration not stated) | inconclusive: 1.3 nM
18 | FC(F)(F)c1cccc(N2CCc3cn[nH]c32)c1 | inconclusive: 1.1 nM
19 | Cc1nnc(SCCn2c(N3CCCCCC3)nc3c2c(=O)[nH]c(=O)n3C)s1 | inconclusive: 1.2 nM
20 | COc1cc(OC)c(C2=NOC(C(=O)Nc3cc(C)nn3-c3ccccc3)C2)cc1Cl (configuration not stated) | inconclusive: 2 nM
21 | CC(C)(CN)SCc1ccccc1 | inactive
22 | c1ccc(OCCCc2nc(-c3ccccn3)no2)cc1 | inconclusive: 1.4 nM

Row | Structure (SMILES) | max dye-equivalent concentration
23 | O=c1c(F)cn(C2CCCO2)c(=O)n1Cc1ccccc1F (configuration not stated) | inconclusive: 1.2 nM
24 | CN(C)CC(O)COc1cc2ccccc2cc1C(=O)N1CCCCC1 (configuration not stated) | inconclusive: 1.8 nM
25 | O[C@@H]1[C@@H]2c3cc4c(cc3CN3CCC(=C[C@@H]1O)[C@H]23)OCO4 | inactive
26 | CC1(C)CC(=O)c2cnc(NCc3ccco3)nc2C1 | inconclusive: 1.1 nM
27 | Cc1cc(NS(=O)(=O)c2ccc(OCCNS(C)(=O)=O)cc2)no1 | inconclusive: 1.3 nM
28 | Cc1occc1C(=O)Nc1cc(=O)n(C)c(=O)n1C | inconclusive: 1.1 nM
29 | CCCCCCCCN[C@@H](C)[C@H](O)c1ccc(SC(C)C)cc1 | inconclusive: 1.6 nM
30 | COCCNC(=O)C(c1ccco1)N(C(=O)Cn1nnc2ccccc21)c1ccc(C)cc1C (configuration not stated) | inconclusive: 1.3 nM
31 | COc1ccc(-c2noc(-c3ccc(Cl)cc3)n2)cc1 | inconclusive: 1.5 nM
32 | O=C(CN1C(=O)c2cccc3cccc1c23)N1CCN(c2ccccc2)CC1 | inactive
33 | CCN(CC)C(=O)CSc1nnc([C@H](CCSC)NC(=O)OC(C)(C)C)o1 | inconclusive: 1.6 nM
34 | Cn1c(-c2ccc(Br)o2)nc2cc(Br)ccc21 | inconclusive: 1.2 nM
35 | Cn1cccc1C(=O)NC(=O)COC(=O)c1ccccc1Sc1ccccc1C#N | inconclusive: 1.1 nM
36 | CCc1nnc(NC(=O)CSc2nnc(-c3ccc(OC)cc3)n2C)s1 | inconclusive: 1.1 nM
37 | COc1cccc(Cn2cccc(NC(=O)NC3CCCCC3)c2=O)c1 | inconclusive: 1.8 nM
38 | CC(C)OCCCn1c(=S)[nH]c2ccc(N3CCOCC3)cc2c1=O | inactive
39 | Nc1nc(CN2CCOCC2)cs1 | inconclusive: 1.3 nM
40 | COc1ccc([C@@H]2CC(=O)c3c(O)cc(O[C@@H]4O[C@@H](CO[C@@H]5O[C@@H](C)[C@@H](O)[C@@H](O)[C@H]5O)[C@@H](O)[C@@H](O)[C@H]4O)cc3O2)cc1O | inactive
41 | COc1ccc(-c2cc(C(F)(F)F)n3nc(C(=O)N4CCOCC4)nc3n2)cc1 | inconclusive: 2.2 nM
42 | COc1ccc(C(=O)N(CC(=O)NC(C)(C)C)c2ccc3c(c2)OCCO3)cc1OC | inconclusive: 1.1 nM
43 | CCCOc1ccc(C(=O)c2nc3c(n2O)CCCC3)cc1 | inconclusive: 1.2 nM
44 | COC(=O)c1ccc2c(=O)n(Cc3ccco3)c(SCC(=O)Nc3ccccc3Cl)nc2c1 | inconclusive: 1.7 nM

Row | Structure (SMILES) | max dye-equivalent concentration
45 | Cc1[nH]c2ccccc2c1C(c1ccccn1)N1CCC(C(N)=O)CC1 (configuration not stated) | inconclusive: 1.4 nM
46 | CC(C)(C)c1ccc(C(=O)Nc2nonc2-c2nc3ccccc3[nH]2)cc1 | inconclusive: 1.1 nM
47 | COc1ccccc1-c1noc(-c2ccccc2C(=O)Nc2ccccc2)n1 | inconclusive: 1.1 nM
48 | O=C(CSc1nnc(-c2ccc3c(c2)OCCO3)o1)N1CCCC1 | inconclusive: 1.4 nM
49 | C[C@H](C(=O)c1ccccc1)[C@@H](c1ccccc1)N1CCOCC1 | inactive
50 | COc1ccc(CCNC(=O)COc2ccc(S(=O)(=O)N3CCOCC3)cc2)cc1OC | inconclusive: 1.1 nM
51 | COc1ccc(OC)c(NC(=O)c2cc(-c3cc(Cl)ccc3O)n[nH]2)c1 | inconclusive: 2 nM
52 | CCOc1ccc(CN(C(=O)c2ccco2)C2CCS(=O)(=O)C2)cc1 (configuration not stated) | inconclusive: 1.3 nM
53 | Cc1nc2nc(SCC(N)=O)[nH]c2cc1Br | inconclusive: 1.3 nM
54 | CC(C)Cn1cc(C(=O)N2CCOCC2)c2c3ccccc3n(C)c2c1=O | inconclusive: 1.2 nM
55 | CN1CCN(c2ccccc2NC(=O)c2cccc(OCc3ccccc3)c2)CC1 | inconclusive: 1.1 nM
56 | CCC(Sc1nc2n[nH]c(C)c2c(=N)n1-c1cccc(Cl)c1)C(=O)NCCOC (configuration not stated) | inconclusive: 3.5 nM
57 | Cc1ccc(S(=O)(=O)NCCSc2nnnn2-c2cc(C)ccc2C)cc1 | inconclusive: 1.1 nM
58 | CC(C)N(C(=O)N1CCC(c2nc(-c3ccncc3)no2)CC1)C(C)C | inconclusive: 1.2 nM
59 | COCCNC(=O)c1ccc(N(C)S(=O)(=O)c2ccc(OC)c(OC)c2)cc1 | inconclusive: 2.3 nM
60 | COc1ccc(N2CCN(C(=O)c3ccc(OCC4CCCO4)cc3)CC2)cc1 (configuration not stated) | inconclusive: 2 nM
61 | CCOC(=O)c1cc2oc(C(c3nnnn3C3CCCCC3)N3CCOCC3)cc2[nH]1 (configuration not stated) | inconclusive: 1.1 nM
62 | CC(=O)c1ccc(Oc2cc(C)nc(-n3nc(C)cc3C)n2)cc1 | inconclusive: 1.2 nM
63 | Cc1cc(=O)n(CC=C(Cl)Cl)c2ccccc12 | inactive
64 | COc1ncnc2sc(-c3ccccc3)cc12 | inconclusive: 2.1 nM
65 | COC(=O)c1ccc(Oc2nc(N3CCCCC3)nc(N3CCOCC3)n2)cc1 | inconclusive: 1.6 nM
66 | O=C(O)COc1c(Cl)cc(Cl)c2cccnc12 | inactive

7 entries from above, sorted by formula weight, largest number first:
Row | Structure (SMILES) | max dye-equivalent concentration
60 | COc1ccc(N2CCN(C(=O)c3ccc(OCC4CCCO4)cc3)CC2)cc1 (configuration not stated) | inconclusive: 2 nM
47 | COc1ccccc1-c1noc(-c2ccccc2C(=O)Nc2ccccc2)n1 | inconclusive: 1.1 nM
58 | CC(C)N(C(=O)N1CCC(c2nc(-c3ccncc3)no2)CC1)C(C)C | inconclusive: 1.2 nM
48 | O=C(CSc1nnc(-c2ccc3c(c2)OCCO3)o1)N1CCCC1 | inconclusive: 1.4 nM
53 | Cc1nc2nc(SCC(N)=O)[nH]c2cc1Br | inconclusive: 1.3 nM
66 | O=C(O)COc1c(Cl)cc(Cl)c2cccnc12 | inactive
64 | COc1ncnc2sc(-c3ccccc3)cc12 | inconclusive: 2.1 nM

Next part

Row | Structure (SMILES) | max dye-equivalent concentration
67 | Cc1nnc(SCCn2c(N3CCN(C)CC3)nc3c2c(=O)[nH]c(=O)n3C)s1 | inconclusive: 1.5 nM
68 | COc1cccc(N=C2SC(C(=O)Nc3ccc(F)cc3)CC(=O)N2C)c1 (configuration not stated) | inconclusive: 1.1 nM
69 | NCC[C@H](N)C(=O)O | inconclusive: 1.5 nM
70 | COc1nc(N(C)C)nc(N(OC)S(=O)(=O)c2ccccc2Cl)n1 | inconclusive: 1.4 nM
71 | O=C(O)CCc1nc2cccnc2n1Cc1ccccc1 | inconclusive: 1.1 nM
72 | O=C(O)C[C@H]1OCC=C2C[N@@+]3([O-])CC[C@]45c6ccccc6N[C@@H]4[C@@H]1[C@H]2C[C@H]53 | inconclusive: 1.1 nM
73 | CCOC(=O)C1CCCN(CCCc2ccccc2)C1 (configuration not stated) | inconclusive: 1.3 nM
74 | COCc1cc(C)nc(SCC(=O)Nc2cccc(C)c2C)c1C#N | inconclusive: 1.4 nM
75 | C=C1CC[C@@H]2O[C@]2(C)CC[C@@H]2[C@H]1CC2(C)C | inactive
76 | CCOc1cc(NC(=O)c2ccco2)c(OCC)cc1NC(=O)COc1ccccc1C | inconclusive: 2.3 nM
77 | O=c1c(-c2ccc(Cl)cc2)nc2cnc(N3CCOCC3)nc2n1-c1ccccc1 | inconclusive: 1.1 nM
78 | O=C(Nc1ccc2c(c1)nc1n2CCCCC1)c1cc(S(=O)(=O)N2CCOCC2)ccc1Cl | inconclusive: 1.7 nM
79 | c1cncc(CNc2ccnc(-c3ccc4c(c3)OCO4)n2)c1 | inactive
80 | Cc1cc(C)c(S(=O)(=O)N(C)Cc2cnn(C)c2)c(C)c1 | inconclusive: 1.5 nM
81 | O=c1c(-c2cc(F)cc(F)c2)nc2cnc(N3CCOCC3)nc2n1C1CC1 | inactive
82 | CC1CC(C)CN(CC(=O)Nc2ccc(S(N)(=O)=O)cc2)C1 (configuration not stated) | inconclusive: 1.2 nM
83 | CCCCOc1ccc(C(=O)CCN2CCCCC2)cc1 | inconclusive: 1.7 nM
84 | O=C1CCCC2=C1C1(CCCC1)N=C(Nc1nc3ccccc3s1)N2 | inconclusive: 1.3 nM
85 | c1ccc(Nc2nc(-c3ccc4c(c3)OCO4)nc3ccccc23)cc1 | inactive
86 | CCn1c(-c2ccc(F)cc2)n[nH]c1=S | inconclusive: 1.2 nM
87 | CCC(=O)NC(Nc1cccc(C)n1)(C(F)(F)F)C(F)(F)F | inconclusive: 1.4 nM
